These are yes or no findings as the source states them, for the method shown. Binding seen in cells or lysates may run through a third protein. Some results given as binding are weak or reduced against the parent protein; the word gives no strength. Where a sequence is shown, tags or fusion partners need not be part of it.
Target: T1, His6-TEV-tagged AtGet3dΔ1–57 (pET33b, TA protein capture assay) (Arabidopsis thaliana) (UniProt Q6DYE4)
T1 sequence: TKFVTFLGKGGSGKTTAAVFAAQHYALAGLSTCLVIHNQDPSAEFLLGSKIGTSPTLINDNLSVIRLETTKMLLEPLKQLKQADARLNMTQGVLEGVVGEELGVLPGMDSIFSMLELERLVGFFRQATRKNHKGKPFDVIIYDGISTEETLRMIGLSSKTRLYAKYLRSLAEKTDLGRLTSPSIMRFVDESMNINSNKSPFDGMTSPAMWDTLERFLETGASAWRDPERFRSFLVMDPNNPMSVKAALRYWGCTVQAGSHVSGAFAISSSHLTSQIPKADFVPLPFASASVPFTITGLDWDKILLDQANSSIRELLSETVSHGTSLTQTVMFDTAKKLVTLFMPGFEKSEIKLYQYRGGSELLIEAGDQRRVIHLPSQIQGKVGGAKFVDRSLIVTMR
Assay: pull-down; His6-tagged Get3d co-expressed with MBP-Sbh1 in E. coli; lysate passed over nickel resin, eluted with imidazole; Coomassie SDS-PAGE and Western blot (anti-His5, anti-MBP)

binding: binds
B1: maltose-binding protein (MBP)–tagged yeast TA protein Sbh1 (protein, UniProt P52870 1-82)
chain: MSSPTPPGGQRTLQKRKQGSSQKVAASAPKKNTNSNNSILKIYSDEATGLRVDPLVVLFLAVGFIFSVVALHVISKVAGKLF
